Results reported in article PMC4877382.

Tests used:
Assay in all cases: EMSA with Western blot
[1] = molecular target: T1, H-NS (Escherichia coli) (UniProt P0ACF8); details: anti-H-NS; EMSA: 10 mM Tris-HCl pH 8, 10 mM MgCl2, 100 mM NaCl, 10 mM KCl, 1 mM spermidine, 0.5 mM DTT, 5% glycerol, 0.08 mg/ml BSA, 50 ng poly dI-dC, 25 C, 15 min; native protein; probe letters rebuilt from the primers and the genome
T1 sequence (looked up, limits assumed): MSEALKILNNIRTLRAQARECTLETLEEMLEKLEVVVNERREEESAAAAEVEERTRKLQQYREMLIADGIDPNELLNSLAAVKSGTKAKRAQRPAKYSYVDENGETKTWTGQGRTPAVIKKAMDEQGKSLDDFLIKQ

[2] = system: FIS + H-NS; details: FIS 70-280 nM and H-NS 800 nM, same complexes seen with both antibodies; EMSA: 10 mM Tris-HCl pH 8, 10 mM MgCl2, 100 mM NaCl, 10 mM KCl, 1 mM spermidine, 0.5 mM DTT, 5% glycerol, 0.08 mg/ml BSA, 50 ng poly dI-dC, 25 C, 15 min; native protein; probe letters rebuilt from the primers and the genome
[3] = molecular target: T2, FIS (Escherichia coli) (UniProt P0A6R3); details: anti-FIS; EMSA: 10 mM Tris-HCl pH 8, 10 mM MgCl2, 100 mM NaCl, 10 mM KCl, 1 mM spermidine, 0.5 mM DTT, 5% glycerol, 0.08 mg/ml BSA, 50 ng poly dI-dC, 25 C, 15 min; native protein; probe letters rebuilt from the primers and the genome
T2 sequence (looked up, limits assumed): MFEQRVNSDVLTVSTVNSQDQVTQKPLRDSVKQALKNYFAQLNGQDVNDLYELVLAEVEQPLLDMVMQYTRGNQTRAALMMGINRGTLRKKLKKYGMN

Measured: binding result

CAACCCGGCATTAAGTAAGCAGTTGATGGAATAGACTTTTATCCACTTTATTGCTGTTTACGGTCCTGATGACAGGACCGTTTTCCAACCGATTAATCATAAATATGAAAAATAATTGTTGCATCACCCGCCAATGCGTGGCTTAATGCACATCAACGGTTTGACGTACAGACCATTAAAGCAGTGTAGTAAGGCAAGTCCCTTCAAGAGTTATCGTTGATACCCCTCGTAGTGCACATTCCTTTAACGCTTCAAAATCTGTAAAGCACGCCATATCGCCGAAAGGCACACTTAATTATTAAAGGTAATACACTATGTCCGGTAAAATGACTGGTATCGTAAAATGG (double strand) [cspA promoter 340 bp PCR fragment]
binds: all assays above

The exact form of at least one protein or probe is not confirmed. For part of these data: Protein sequences can lack the tags named with them.
